Where two headings read alike, the source gives them in different places. These are yes or no findings as the source states them, for the method shown. Some entries that bind do so weakly or less than the wild type. Where a sequence is shown, tags or fusion partners need not be part of it.
Assays:
[1] = biological target: biotinylated HsCRBN (bls-CRBN), wild type (human) (UniProt Q96SW2); experiment: AlphaScreen or HTRF
[2] = biological target: biotinylated HsCRBN (bls-CRBN), wild type (human) (UniProt Q96SW2); experiment: AlphaScreen or HTRF; remark: listed apart in the source

Protein sequences, listed by entry. Tags and fused reporters are not part of them.
UniProt Q96SW2: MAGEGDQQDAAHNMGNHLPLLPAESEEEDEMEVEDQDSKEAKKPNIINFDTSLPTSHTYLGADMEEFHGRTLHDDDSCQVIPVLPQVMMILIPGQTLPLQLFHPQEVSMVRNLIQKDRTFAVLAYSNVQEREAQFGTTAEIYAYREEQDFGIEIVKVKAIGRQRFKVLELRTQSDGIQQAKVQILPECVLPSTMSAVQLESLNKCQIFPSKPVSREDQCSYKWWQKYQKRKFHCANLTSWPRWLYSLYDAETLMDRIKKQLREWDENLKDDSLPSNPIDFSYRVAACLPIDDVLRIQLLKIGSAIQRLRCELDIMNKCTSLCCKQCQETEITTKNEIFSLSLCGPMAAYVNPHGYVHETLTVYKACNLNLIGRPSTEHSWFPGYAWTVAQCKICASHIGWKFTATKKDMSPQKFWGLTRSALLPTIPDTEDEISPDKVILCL

Binder | binding [1] | binding [2]
FLAG-GST-HMGB2 (protein, UniProt P26583 1-209) MGKGDPNKPRGKMSSYAFFVQTCREEHKKKHPDSSVNFAEFSKKCSERWKTMSAKEKSKFEDMAKSDKARYDREMKNYVPPKGDKKGKKKDPNAPKRPPSAFFLFCSEHRPKIKSEHPGLSIGDTAKKLGEMWSEQSAKDKQPYEQKAAKLKEKYEKDIAAYRAKGKSEAGKKGPGRPTGSKKKNEPEDEEEEEEEEDEDEEEEDEDEE | binds | binds
FLAG-GST-ELF5 (protein, UniProt Q9UKW6 1-265) MPSLPHSHRVMLDSVTHSTFLPNASFCDPLMSWTDLFSNEEYYPAFEHQTACDSYWTSVHPEYWTKRHVWEWLQFCCDQYKLDTNCISFCNFNISGLQLCSMTQEEFVEAAGLCGEYLYFILQNIRTQGYSFFNDAEESKATIKDYADSNCLKTSGIKSQDCHSHSRTSLQSSHLWEFVRDLLLSPEENCGILEWEDREQGIFRVVKSEALAKMWGQRKKNDRMTYEKLSRALRYYYKTGILERVDRRLVYKFGKNAHGWQEDKL | binds | binds

— publication doi:10.1101/2020.02.28.969071
